According to patent US6365572B1 (Aventis Pharma Deutschland GmbH, priority 1999, dated 2002):
Starred links: 1 amine or outer side, 2 acyl side, 3 side chain; linkers in the order of their positions; H or OH if unused. Non-standard residues stand in square brackets, D forms with d. *: point of attachment. 2Nal = N[C@@H](Cc1ccc2ccccc2c1)C(=O)O; Suc = O=C(CCC(=O)[*:2])[*:1]; Bn = c1ccc(C*)cc1

assay: general procedure: Fmoc solid-phase peptide synthesis; polyethylene glycol-grafted polystyrene beads or TentaGel S NH2 (peptide libraries); details: late stage modification step

Step yield, 9.5%:
Suc-Pro[(3R)-2-Naphthyl]-Asn-Ala-Val-NH2

same assay, conditions: whole synthesis

Purity (crude or final not stated), 75-95%:
Suc-Nal(2)-Asn-Ala-Val-N(CH3)2
H-Asp-nal(2)-Asn-Ser-Val-Gly-NH(CH2)3OH
H-Arg-Asp-Nal(2)-Asn-Ser-Val-Gly-NH(CH2)3OH
H-D[2Nal]NSV-NH2
H-D[2Nal]NSVG-NH2
Glutaryl-Nal(2)-Asn-Ser-Val-Gly-NH(CH2)3OH
H-βAsp-Nal(2)-Asn-Ser-Val-Gly-NH(CH2)3OH

Purity (crude or final not stated), 50-75%:
H-Asp-Ala[3-(3-pyridyl)-Asn-Ser-Val-Gly-NH(CH2)3OH
H-Asp-Hof-Asn-Ser-Val-Gly-NH(CH2)3OH
H-Asp-Pro[(3S)-Phenyl]-Asn-Ser-Val-Gly-NH(CH2)3OH
Phthalyl-Nal(2)-Asn-Ser-Val-Gly-NH(CH2)3OH
H-Asp-Pro[(3R)-Phenyl]-Asn-Ser-Val-Gly-NH(CH2)3OH

Purity (crude or final not stated), >95%:
Suc-Nal(2)-Asn-Ala-Gly(2-tBu)-NH2
H-Asp-Nal(1)-Asn-Ala-Val-Gly-NH(CH2)3OH
Suc-Nal(2)-Asn-Ala-Val-Gly-NH(CH2)3OH
H-Asp-Nal(2)-Asn-Ser-Val-Gly-NH(CH2)3OH
H-Asp-Pro-Asn-Ala-Val-Gly-NH(CH2)3OH
H-Lys-Asp-Nal(2)-Asn-Ser-Val-Gly-NH(CH2)3OH
Suc-[2Nal]NAV-NH2
Suc-Ala[3-(4-Biphenyl)]-Asn-Ala-Val-NH2
H-Asp-Trp-Asn-Ala-Val-Gly-NH(CH2)3OH
H-Asp-Tyr-Asn-Ala-Va-Gly-NH(CH2)3OH
H-Asn-Ile-Asp-Pro-Asn-Ala-Val-Gly-NH(CH2)3OH
Suc-[2Nal]NGV-NH2
Suc-[2Nal]NAV-OH
H-Cit-Asp-Nal(2)-Asn-Ser-Val-Gly-NH(CH2)3OH
Suc-Pro[(3R)-2-Naphthyl]-Asn-Ala-Val-NH2
Suc-Y(Bn)NAV-NH2
H-Asp-Phe-Asn-Ala-Val-Gly-NH(CH2)3OH
H-Asp-Nal(2)-Asn-Ala-Ile-Gly-NH(CH2)3OH
H-Asp-Nal(2)-Asn-Asp-Ile-Gly-NH(CH2)3OH
H-Asp-Nal(2)-Asn-Asp-Val-Gly-NH(CH2)3OH
Suc-Nal(2)-Asn-Ser-Val-Gly-NH(CH2)3OH
H-Asp-Nal(2)-Asn-Ala-Val-Gly-NH(CH2)3OH
H-Asp-Ala[3-(4-Biphenyl)]-Asn-Ala-Val-Gly-NH(CH2)3OH
H-Asp-Ala(3,3-Diphenyl)-Asn-Ala-Val-Gly-NH(CH2)3OH
H-Asp-Ala[3-(3-Benzothienyl)]-Asn-Ala-Val-Gly-NH(CH2)3OH
Suc-Nal(2)-Asn-Ala-Val-ol
Suc-Pro[(3R)-2-Naphthyl]-Asn-Ala-Val-ol
